Source: paper PMC3507856

Sequences of proteins named here, by UniProt entry; tags and fusion partners are left off. Residues count along the entry.
UniProt P42224, 1-746: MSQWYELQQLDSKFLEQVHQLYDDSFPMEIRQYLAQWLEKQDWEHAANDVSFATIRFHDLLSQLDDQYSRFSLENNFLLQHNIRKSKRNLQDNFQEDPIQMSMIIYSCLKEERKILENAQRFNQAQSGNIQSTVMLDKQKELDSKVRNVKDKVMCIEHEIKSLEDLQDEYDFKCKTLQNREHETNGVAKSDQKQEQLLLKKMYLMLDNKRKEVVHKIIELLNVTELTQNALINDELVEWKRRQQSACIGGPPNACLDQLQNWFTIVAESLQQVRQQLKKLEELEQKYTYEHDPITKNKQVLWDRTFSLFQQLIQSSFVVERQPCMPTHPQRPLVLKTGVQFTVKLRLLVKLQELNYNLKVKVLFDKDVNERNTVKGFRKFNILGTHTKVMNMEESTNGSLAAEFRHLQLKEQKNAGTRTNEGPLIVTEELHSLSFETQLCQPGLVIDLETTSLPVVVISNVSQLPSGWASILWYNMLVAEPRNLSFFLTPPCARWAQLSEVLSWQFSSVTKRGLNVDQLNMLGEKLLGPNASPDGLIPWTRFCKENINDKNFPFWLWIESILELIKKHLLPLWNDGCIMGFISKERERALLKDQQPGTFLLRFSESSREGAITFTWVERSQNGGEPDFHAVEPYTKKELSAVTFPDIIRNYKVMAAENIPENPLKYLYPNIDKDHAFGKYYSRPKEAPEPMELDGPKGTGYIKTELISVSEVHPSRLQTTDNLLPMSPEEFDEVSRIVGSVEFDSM
UniProt P42224, 1-746 E411A: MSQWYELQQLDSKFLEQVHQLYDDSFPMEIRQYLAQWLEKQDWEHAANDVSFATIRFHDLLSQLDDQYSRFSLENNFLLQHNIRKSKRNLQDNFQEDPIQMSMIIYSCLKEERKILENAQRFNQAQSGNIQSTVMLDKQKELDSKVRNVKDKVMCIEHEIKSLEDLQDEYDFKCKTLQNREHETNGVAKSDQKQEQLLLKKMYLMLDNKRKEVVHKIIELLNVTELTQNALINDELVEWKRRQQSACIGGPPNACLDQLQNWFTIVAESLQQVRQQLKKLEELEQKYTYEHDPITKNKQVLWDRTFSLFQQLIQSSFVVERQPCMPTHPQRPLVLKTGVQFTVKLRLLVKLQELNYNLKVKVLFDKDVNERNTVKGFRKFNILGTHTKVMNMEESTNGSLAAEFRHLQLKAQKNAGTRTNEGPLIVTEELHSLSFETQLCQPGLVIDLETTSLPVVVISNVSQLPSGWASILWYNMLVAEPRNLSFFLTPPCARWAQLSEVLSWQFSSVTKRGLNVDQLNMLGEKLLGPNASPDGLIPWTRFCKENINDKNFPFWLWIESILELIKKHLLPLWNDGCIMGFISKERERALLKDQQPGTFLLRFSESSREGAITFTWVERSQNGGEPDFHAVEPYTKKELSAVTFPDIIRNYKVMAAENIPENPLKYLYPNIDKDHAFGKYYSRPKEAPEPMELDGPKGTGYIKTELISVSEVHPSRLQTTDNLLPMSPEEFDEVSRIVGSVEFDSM
UniProt P42224, 1-746 E421K: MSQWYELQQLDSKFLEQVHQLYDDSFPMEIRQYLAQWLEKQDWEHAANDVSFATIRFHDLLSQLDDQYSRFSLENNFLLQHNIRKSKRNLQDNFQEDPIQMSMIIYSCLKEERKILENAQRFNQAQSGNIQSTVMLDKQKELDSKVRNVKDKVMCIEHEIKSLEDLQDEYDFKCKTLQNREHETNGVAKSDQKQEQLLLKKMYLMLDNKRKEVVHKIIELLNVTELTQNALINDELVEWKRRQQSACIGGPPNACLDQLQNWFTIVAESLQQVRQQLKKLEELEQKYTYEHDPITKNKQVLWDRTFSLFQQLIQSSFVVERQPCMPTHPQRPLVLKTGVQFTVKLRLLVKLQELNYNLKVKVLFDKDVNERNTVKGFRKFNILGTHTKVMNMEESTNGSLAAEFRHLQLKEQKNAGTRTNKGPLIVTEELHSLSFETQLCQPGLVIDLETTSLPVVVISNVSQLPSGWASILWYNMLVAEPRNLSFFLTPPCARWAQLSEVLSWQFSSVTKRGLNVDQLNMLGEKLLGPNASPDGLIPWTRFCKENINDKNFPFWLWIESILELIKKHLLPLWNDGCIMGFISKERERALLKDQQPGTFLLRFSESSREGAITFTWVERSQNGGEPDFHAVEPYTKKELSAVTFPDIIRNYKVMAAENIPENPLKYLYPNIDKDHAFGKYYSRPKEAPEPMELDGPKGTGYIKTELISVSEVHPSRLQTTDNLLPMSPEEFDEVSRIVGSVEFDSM

Tests used:
Assay in all cases: EMSA
[1] = biological target: STAT1 wild-type (IFNg-activated, pTyr701) (Homo sapiens) (UniProt P42224); details: 4 ul whole cell extract (0.2% NP40/10 mM KCl and 420 mM KCl extraction buffers, 1 mM EDTA, 20 mM Hepes pH 7.4, vanadate, NaF, protease inhibitors) with 1 ng 32P duplex, protein in an extract, residues 1-746, label: 32P (Klenow end fill-in)
[2] = biological target: STAT1-E411A (IFNg-activated, pTyr701) (Homo sapiens) (UniProt P42224); details: 4 ul whole cell extract (0.2% NP40/10 mM KCl and 420 mM KCl extraction buffers, 1 mM EDTA, 20 mM Hepes pH 7.4, vanadate, NaF, protease inhibitors) with 1 ng 32P duplex, protein in an extract, residues 1-746, label: 32P (Klenow end fill-in)
[3] = biological target: STAT1-E411A-GFP (IFNg-activated) (Homo sapiens) (UniProt P42224); details: GFP homodimer band, prolonged binding under staurosporine; 4 ul whole cell extract (0.2% NP40/10 mM KCl and 420 mM KCl extraction buffers, 1 mM EDTA, 20 mM Hepes pH 7.4, vanadate, NaF, protease inhibitors) with 1 ng 32P duplex; protein in an extract; residues 1-746; protein details: C-terminal GFP; label: 32P (Klenow end fill-in)
[4] = test system: STAT1-E411A-GFP (IFNg-activated) + native STAT1 of HeLa cells (IFNg-activated); details: heterodimer of GFP-tagged and native STAT1; 4 ul whole cell extract (0.2% NP40/10 mM KCl and 420 mM KCl extraction buffers, 1 mM EDTA, 20 mM Hepes pH 7.4, vanadate, NaF, protease inhibitors) with 1 ng 32P duplex; protein in an extract; protein details: C-terminal GFP; label: 32P (Klenow end fill-in)
[5] = biological target: STAT1-E421K (IFNg-activated, pTyr701) (Homo sapiens) (UniProt P42224); details: slower dissociation than WT on 750x unlabeled M67 challenge; 4 ul whole cell extract (0.2% NP40/10 mM KCl and 420 mM KCl extraction buffers, 1 mM EDTA, 20 mM Hepes pH 7.4, vanadate, NaF, protease inhibitors) with 1 ng 32P duplex; protein in an extract; residues 1-746; label: 32P (Klenow end fill-in)
[6] = biological target: STAT1-WT-GFP (IFNg-activated) (Homo sapiens) (UniProt P42224); details: GFP homodimer band; 4 ul whole cell extract (0.2% NP40/10 mM KCl and 420 mM KCl extraction buffers, 1 mM EDTA, 20 mM Hepes pH 7.4, vanadate, NaF, protease inhibitors) with 1 ng 32P duplex; protein in an extract; residues 1-746; protein details: C-terminal GFP; label: 32P (Klenow end fill-in)
[7] = test system: STAT1-WT-GFP (IFNg-activated) + native STAT1 of HeLa cells (IFNg-activated); details: heterodimer of GFP-tagged and native STAT1; 4 ul whole cell extract (0.2% NP40/10 mM KCl and 420 mM KCl extraction buffers, 1 mM EDTA, 20 mM Hepes pH 7.4, vanadate, NaF, protease inhibitors) with 1 ng 32P duplex; protein in an extract; protein details: C-terminal GFP; label: 32P (Klenow end fill-in)
[8] = biological target: native STAT1 of HeLa cells (IFNg-activated) (UniProt P42224); details: native homodimer band; 4 ul whole cell extract (0.2% NP40/10 mM KCl and 420 mM KCl extraction buffers, 1 mM EDTA, 20 mM Hepes pH 7.4, vanadate, NaF, protease inhibitors) with 1 ng 32P duplex; protein in an extract; label: 32P (Klenow end fill-in)
[9] = dimer and tetramer complexes, tetramer resists 750x M67

Q: Does “CGACATTTCCCGTAAATCTG (double strand) [M67]” bind ([1]; faster dissociation than mutants on 750x unlabeled M67 challenge)?
A: Result: binds

Q: Does “CGACATTTCCCGTAAATCTG (double strand) [M67]” bind ([2]; slower dissociation than WT on 750x unlabeled M67 challenge)?
A: Result: binds

Q: Does “CGACATTTCCCGTAAATCTG (double strand) [M67]” bind [3]?
A: Result: binds

Q: Does “CGACATTTCCCGTAAATCTG (double strand) [M67]” bind [4]?
A: Result: binds

Q: Does “CGACATTTCCCGTAAATCTG (double strand) [M67]” bind [5]?
A: Result: binds

Q: Does “CGACATTTCCCGTAAATCTG (double strand) [M67]” bind [6]?
A: Result: binds

Q: Does “CGACATTTCCCGTAAATCTG (double strand) [M67]” bind [7]?
A: Result: binds

Q: Does “CGACATTTCCCGTAAATCTG (double strand) [M67]” bind [8]?
A: Result: binds

Q: Does “CGTTTACCCCAAATTGACGGATTTACCCCAAC (double strand) [2x nonGAS]” bind [1]?
A: Result: no binding

Q: Does “CGTTTACCCCAAATTGACGGATTTACCCCAAC (double strand) [2x nonGAS]” bind [2]?
A: Result: binds more weakly

Q: Does “CGTTTCCCCGAAATTGACGGATTTACCCCAAC (double strand) [GAS-nonGAS]” bind [1]?
A: Result: binds

Q: Does “CGTTTCCCCGAAATTGACGGATTTACCCCAAC (double strand) [GAS-nonGAS]” bind [2]?
A: Result: binds

Q: Does “CGTTTCCCCGAAATTGACGGATTTCCCCGAAAC (double strand) [2x GAS]” bind [1, 9]?
A: Result: binds

Q: Does “CGTTTCCCCGAAATTGACGGATTTCCCCGAAAC (double strand) [2x GAS]” bind [2, 9]?
A: Result: binds

Results from cells or extracts need not show a direct contact. For some assays here: No signal at the amounts used counts as a negative. Construct, isoform or probe ends are uncertain for at least one entry. For some assays here: A weaker result is weaker than the reference pair of the same experiment. For some assays here: At least one verdict rests on a figure or table, not on a statement of the authors.
